# ± gives the standard deviation of the averaged measurements. This is one part of the list.
# Test system: Madurella mycetomatis MM55
# Assay: metabolic activity (growth) relative to DMSO growth control; higher = more fungal growth
# Conditions: 1 µM
row,SMILES,metabolic activity [%]
1,Cn1ccc(-c2cccc(Nc3ccnc4cc(-c5nccs5)ccc34)c2)n1,92.4 ± 2.5
2,Nc1n[nH]c2cc(-c3cnn(Cc4ccccc4)c3)ccc12,98.1 ± 46
3,COc1cc(-c2cncc(-c3cnn(C4CCNCC4)c3)c2)cc(OC)c1OC,121 ± 13
4,CNCc1ccc(-c2cc(-c3nc(-c4ccc(S(=O)(=O)C(C)C)cc4)cnc3N)on2)cc1,111 ± 4.6
5,CCCNC(=O)c1ccc(Nc2ncc(C(F)(F)F)c(Nc3ccccc3C(C)=O)n2)c(Br)c1,90.8 ± 4.8
6,COCCOCCOc1cc2c(cc1OC)NC(=O)c1ccc(-c3ccc([N+](=O)[O-])c(OC)c3)cc1N2,92.8 ± 4.1
7,COc1ncccc1-c1cnn2ccc(N3CCN4C(=O)NCC4C3)nc12 (centres undefined),86.6 ± 19
8,CCc1c(-c2ccc(C(C)(C)O)cc2)[nH]c2nc(C)c3cncn3c12,79.8 ± 6.3
9,COc1ccc(COc2ccc(Cc3cnc(N)nc3N)cc2OC)cc1,89.4 ± 20
10,Cc1ccc(-n2c(=O)c3cnc(Nc4ccc(N5CCN(C)CC5)cc4)nc3n3ccnc23)c(Cl)c1.O=C(O)C(F)(F)F.O=C(O)C(F)(F)F,108 ± 27
11,CC(C)c1cc(-c2ccc3c(N)n[nH]c3c2)nc(N)n1,86.9 ± 12
12,CC(C)(C)c1cnc(CSc2cnc(NC(=O)C3CCOCC3)s2)o1,102 ± 8.8
13,CCS(=O)(=O)Nc1cccc(Oc2cc(F)cc(Nc3ccc(I)cc3F)c2NS(=O)(=O)C2CC2)c1,107 ± 5.4
14,Cc1ccc(-c2cc(-c3c[nH]nc3-c3ccccn3)ccn2)cc1,98.2 ± 10

# A draw from above in order of length of the SMILES, smallest number first:
row,SMILES,metabolic activity [%]
2,Nc1n[nH]c2cc(-c3cnn(Cc4ccccc4)c3)ccc12,98.1 ± 46
14,Cc1ccc(-c2cc(-c3c[nH]nc3-c3ccccn3)ccn2)cc1,98.2 ± 10
3,COc1cc(-c2cncc(-c3cnn(C4CCNCC4)c3)c2)cc(OC)c1OC,121 ± 13

# Source: the supplement of paper PMC12425257
